# Results taken from PubChem BioAssay AID504834 (National Center for Advancing Translational Sciences (NCATS), 2011).
# In all, about 320,000 compounds went through this assay and about 22,000 (6.9%) were called active. The inconclusive results got no clear call from the source; some entries with a clear call stand among them for comparison. Calls follow the shape of the dose curve; as a rule, active = well fitted inhibition curve with a large enough effect; inconclusive = small, poorly fitted or top-dose-only effect, or another doubt; inactive = no such curve, though single readings can be large or run the other way. A potency beside an inconclusive call is a rough fit, not a confirmed value.
# Experiment: Primary qHTS for delayed death inhibitors of the malarial parasite plastid, 96 hour incubation
# Conditions: P. falciparum luciferase reporter growth; series mostly up to 28.7 µM; activity change, negative = inhibition: at the top concentration
# Procedure, shortened: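 Two-generation exposure (96 h) targets delayed-death phenotype. Reporter parasites carrying integrated firefly luciferase, in red cells at 2% hematocrit and 0.05% parasitemia final, kept at 37 C, 5% CO2; luminescence loss indicates inhibition.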
# % is scaled to controls: 0 for no effect and ±100 for the full control effect; potency is read from the fitted curve at half-maximal effect.
SMILES,Potency,"activity change, negative = inhibition"
O=C(/C=C/c1ccc(Cl)c([N+](=O)[O-])c1)Nc1ccc(N2CCCC2)cc1,"inconclusive: 4.15 µM [inhibitor, partial curve, poor fit]",
O=C(CN1C(=O)NC(Cc2c[nH]c3ccccc23)C1=O)Nc1cccc(S(=O)(=O)N2CCCCCC2)c1 (configuration not stated),"inconclusive: 11.7 µM [inhibitor, partial curve, poor fit]",
Cc1ccc(S(=O)(=O)N2CCN(CC(=O)Nc3ccc4c(c3)CCC4)CC2)cc1C,"inconclusive: 13.1 µM [inhibitor, single point]",
COCCNC(=O)/C(C#N)=C/c1c(N2CCCCCC2)nc2ccccn2c1=O,"inconclusive: 20.8 µM [inhibitor, partial curve, poor fit]",
CCOC(=O)C1=C(C)Nc2sc(C(=O)c3ccc(Br)cc3)c(N)c2C1c1ccc(C(=O)OC)cc1 (configuration not stated),active: 6.57 µM,
COc1ccc(NC(=O)Nc2cccs2)cc1Cl,,inactive: -17.1%
O=S(=O)(Nc1nc2ccccc2nc1Nc1cccc(S(=O)(=O)N2CCCCC2)c1)c1ccccc1,active: 2.08 µM,
O=C(NC1CCCCC1)C(c1cccnc1)N(C(=O)CCl)c1cccc(Cl)c1 (configuration not stated),"inconclusive: 4.15 µM [inhibitor, partial curve, poor fit]",
CC12CC3CC(C)(C1)CC(C(=O)Nc1nncs1)(C3)C2,,inactive: 0%
CN(C(=O)COC(=O)C1COc2ccccc2O1)c1c(N)n(Cc2ccccc2)c(=O)[nH]c1=O (configuration not stated),,inactive: 14.7%
COc1ccc(C(=O)C[n+]2ccc3ccccc3c2C)cc1,"inconclusive: 10.4 µM [inhibitor, single point]",
O=C(c1ccc(F)cc1)N1CCN(c2ccc([N+](=O)[O-])c(N3CCCCC3)c2)CC1,"inconclusive: 0.0657 µM [inhibitor, full curve, poor fit]",
O=C(CNC(=O)C(c1ccccc1)c1ccccc1)N/N=C/c1cccnc1,"inconclusive: 8.28 µM [inhibitor, partial curve, poor fit]",
COc1ccc(NCC(=O)Nc2ccc(Br)cc2F)c(OC)c1,"inconclusive: 18.5 µM [inhibitor, single point]",
Cc1oc(-c2ccccc2F)nc1CS(=O)(=O)CC(=O)NCCCN1CCc2ccccc2C1,active: 8.28 µM,
O=c1oc(-c2ccccc2F)nc2scc(-c3ccccc3)c12,"inconclusive: 4.15 µM [inhibitor, single point]",
O=C1c2ccccc2C(=O)N1CN(C(=O)c1ccccc1[N+](=O)[O-])c1ccc(F)cc1,"inconclusive: 18.5 µM [inhibitor, single point]",
COc1cc(C2C(C(=O)c3cc4ccccc4o3)=C(O)C(=O)N2CCN2CCOCC2)ccc1OCCC(C)C (configuration not stated),"inconclusive: 18.5 µM [inhibitor, single point]",
CCOC(=O)C1CCCN(C(=O)c2cc3cc(F)ccc3[nH]2)C1 (configuration not stated),"inconclusive: 13.1 µM [inhibitor, single point]",
Cc1ccc2nc3c(c(C(=O)O)c2c1)CCC3,,inactive: 84.9%
COc1ccc(/C=C(/NC(=O)c2ccc(C)cc2)c2nc3ccccc3[nH]2)cc1OC,"inconclusive: 11.7 µM [inhibitor, single point]",
COc1ccc(Oc2coc3cc(OCC(=O)N4CCCCC4)ccc3c2=O)cc1,"inconclusive: 5.22 µM [inhibitor, single point]",
CCCCC/C(=N/O)c1c(C)[nH]c2ccccc12,"inconclusive: 10.4 µM [inhibitor, partial curve, poor fit]",

SMILES,Potency,"activity change, negative = inhibition"
CC1CCN(C(=O)Cn2c(SCC(=O)Nc3nccs3)nc3ccccc32)CC1,,inactive: -28.8%
N#Cc1ccc(CN2CCN(C(=O)CCNS(=O)(=O)c3ccc(F)c(F)c3)CC2)cc1,"inconclusive: 10.4 µM [inhibitor, single point]",
C=CCc1cccc2cc(C(=O)N3CCN(C(=O)c4ccccc4)CC3)c(=O)oc12,,inactive: 59%
Nc1nc(-c2ccccc2)cc(-c2ccccc2O)n1,"inconclusive: 13.1 µM [inhibitor, partial curve]",
CC1=CC(C)(C)Nc2ccc(OC(=O)CN3C(=O)c4cccc5cccc(c45)C3=O)cc21,"inconclusive: 5.86 µM [inhibitor, partial curve, poor fit]",
CCc1ccc(-c2nc(CN3CCC(C(=O)NCc4ccc(F)cc4)CC3)c(C)o2)cc1,"inconclusive: 3.7 µM [inhibitor, single point]",
O=C(NCc1ccncc1)C(=O)Nc1nc2ccccc2s1,,inactive: 202%
CC1=C(C#N)C(NC(=O)C(C)(C)C)(C(F)(F)F)C(=O)N1 (configuration not stated),"inconclusive: 0.0029 µM [inhibitor, full curve, poor fit]",
O=C(OCC(=O)N1CCN(c2ccccc2)CC1)c1ccc(O)cc1O,"inconclusive: 2.33 µM [inhibitor, full curve, poor fit]",
Cc1cccc(CN2CCN(Cc3cccc4nonc34)CC2CCO)n1 (configuration not stated),"inconclusive: 2.33 µM [inhibitor, partial curve, poor fit]",
Cc1ccc(Nc2cc(=O)n(C3CCCCC3)c(=O)[nH]2)cc1C,"inconclusive: 18.5 µM [inhibitor, single point]",
Fc1ccccc1N1CCN(c2ncnc3[nH]ncc23)CC1,"inconclusive: 18.5 µM [inhibitor, single point]",
O=C(Nc1nnc(SCc2ccc(F)cc2)s1)C1Cc2ccccc2CN1C(=O)c1ccco1 (configuration not stated),,inactive: -8.1%
COc1ccc(N(CC(=O)N2CCOCC2)S(=O)(=O)c2ccccc2)cc1Cl,"inconclusive: 9.28 µM [inhibitor, single point]",
CC1CC(NNC(=O)c2ccccc2)=Nc2ccccc2N1C (configuration not stated),"inconclusive: 18.5 µM [inhibitor, single point]",
CCCc1ccc(Oc2cc(C)nc(N3CCOCC3)n2)cc1,,inactive: -2.2%
COc1ccccc1NC(=O)c1ccc2c(c1)CCN2S(C)(=O)=O,,inactive: 9.31%
O=C(COc1ccc(Cl)cc1Br)N1CCN(c2ccccc2)CC1,active: 3.7 µM,
CC(C)Nc1nnc(SC(C)C(=O)Nc2ccc(Cl)cn2)s1 (configuration not stated),,inactive: -23%
COc1ccc(C2=NN(CN3C(=O)C(=O)c4ccccc43)C(c3ccc(Br)cc3)C2)cc1 (configuration not stated),,inactive: 11%
CSc1cccc(-n2cc(-c3ccc4c(c3)OCO4)[nH]c2=O)c1,"inconclusive: 0.185 µM [inhibitor, full curve, poor fit]",
CCN1C(=O)[C@@H]2[C@@H](c3ccc(-c4ccc(OC)cc4)cc3)N3CCCC[C@@]3(C(=O)OC)[C@@H]2C1=O,active: 5.22 µM,
Cc1noc(C)c1COc1ccc(C(=O)N2CCN(S(=O)(=O)c3ccc(Cl)cc3)CC2)cc1,"inconclusive: 1.17 µM [inhibitor, partial curve]",

# Reprinted from the listing, three compounds:
SMILES,Potency,"activity change, negative = inhibition"
CC1=CC(C)(C)Nc2ccc(OC(=O)CN3C(=O)c4cccc5cccc(c45)C3=O)cc21,"inconclusive: 5.86 µM [inhibitor, partial curve, poor fit]",
CCc1ccc(-c2nc(CN3CCC(C(=O)NCc4ccc(F)cc4)CC3)c(C)o2)cc1,"inconclusive: 3.7 µM [inhibitor, single point]",
O=C(NCc1ccncc1)C(=O)Nc1nc2ccccc2s1,,inactive: 202%

# Next part:

SMILES,Potency,"activity change, negative = inhibition"
CC(Nc1nc(=S)nc(Nc2ccc(F)cc2)[nH]1)c1ccccc1 (configuration not stated),active: 10.4 µM,
CN1CCN(CCCC(=O)c2ccc(C3CCCC3)cc2)CC1,"inconclusive: 18.5 µM [inhibitor, single point]",
COC1CC(=C(c2cccs2)c2cccs2)C[N+](C)(C)C1 (configuration not stated),,inactive: -7.36%
CC(=O)N1CCOc2ccc(S(=O)(=O)NCCc3ccc(Cl)cc3)cc21,,inactive: 25.5%
COc1ccccc1N1CCc2c(C)nc3c(OC)cccc3c21,"inconclusive: 18.5 µM [inhibitor, single point]",
COc1ccc(CC(=O)OCn2nnc3ccccc3c2=O)cc1,"inconclusive: 0.928 µM [inhibitor, full curve]",
Cc1cccc2cc(CN(CCCO)C(=O)Nc3ccccc3Cl)c(=O)[nH]c12,"inconclusive: 11.7 µM [inhibitor, single point]",
COc1ccc(OC)c(NC(=O)CSc2nnc(Cc3cccn3C)n2CCc2ccccc2)c1,active: 11.7 µM,
CCOc1ccc(-c2nnc(SCC(=O)Nc3ccc4c(c3)c3ccccc3n4CC)n2N)cc1,"inconclusive: 18.5 µM [inhibitor, single point]",
NC(=O)c1cc(N)ccc1N1CCCC1,"inconclusive: 18.5 µM [inhibitor, single point]",
COC(=O)c1ccc2[nH]c(C)cc(=O)c2c1,,inactive: 7.37%
CCN(CC)CCCNC1=C(Cl)C(=O)c2ccccc2C1=O,"inconclusive: 1.85 µM [inhibitor, full curve]",
Cc1ccc(NCC(=O)c2ccccc2)cc1Cl,"inconclusive: 1.04 µM [inhibitor, partial curve, poor fit]",
COc1ccc(NC(=O)Cn2ncn3c(cc4ccccc43)c2=O)c(OC)c1OC,"inconclusive: 9.28 µM [inhibitor, partial curve]",
Cc1ccc(CNC(=O)C2CCC(=O)N(CCCN3CCOCC3)C2)cc1 (configuration not stated),"inconclusive: 1.17 µM [inhibitor, partial curve, poor fit]",
CN1CCN(Cc2c(C(=O)N3CCc4ccccc4C3)nc3ccc(Cl)cn23)CC1,,inactive: -8.15%
Cc1nc(N2CCOCC2)nc(Oc2ccccc2F)c1[N+](=O)[O-],"inconclusive: 2.08 µM [inhibitor, partial curve, poor fit]",
COc1ccc(S(=O)(=O)Cc2ccc(C(=O)NC3CCCC3)o2)cc1,"inconclusive: 14.7 µM [inhibitor, single point]",
CC(C)n1c(Nc2ccccc2)nc2ccccc21,"inconclusive: 4.15 µM [inhibitor, single point]",
CCOC(=O)C1CCN(c2cc3c(cc2NC(=O)c2ccccc2Cl)n(C)c(=O)n3C)CC1,"inconclusive: 7.38 µM [inhibitor, partial curve]",
O=C(CCCCCN1C(=O)c2cccc3cccc(c23)C1=O)NC1CCS(=O)(=O)C1 (configuration not stated),"inconclusive: 0.329 µM [inhibitor, full curve, poor fit]",
